Measured values reported in patent publication US7098377B2, “IEX-1 knockout animals” (Mayo Foundation for Medical Education and Research, priority 2004, dated 2006).
For at least one compound, name, drawing or mass did not settle the structure.

Tested on: aortic rings
Assay: Vasorelaxation of phenylephrine-contracted aortic rings
Set-up: species or system mouse

CC(=O)OCC[N+](C)(C)C [acetylcholine]
vasodilation of aortic rings, IEX-1-/- compared with IEX-1+/+ (IEX-1+/+ and IEX-1-/- rings): reduced vasodilation in the IEX-1^−/− rings | vasorelaxation response after removal of endothelium (aortic rings without endothelium): abolished | response of aortic rings contracted with phenylephrine (wild type mice, intact endothelium): endothelium-dependent relaxation was noted
